# Test results reported in the supplement of paper PMC12819154, “High-throughput peptide-centric local stability assay extends protein–ligand identification to membrane proteins, tissues and bacteria” (Nature Structural & Molecular Biology, 2025).
# Amino acid sequences for entries named in this document (tags omitted). A change or cut given only in a name is not applied to a line headed by its entry.
# UniProt P37051: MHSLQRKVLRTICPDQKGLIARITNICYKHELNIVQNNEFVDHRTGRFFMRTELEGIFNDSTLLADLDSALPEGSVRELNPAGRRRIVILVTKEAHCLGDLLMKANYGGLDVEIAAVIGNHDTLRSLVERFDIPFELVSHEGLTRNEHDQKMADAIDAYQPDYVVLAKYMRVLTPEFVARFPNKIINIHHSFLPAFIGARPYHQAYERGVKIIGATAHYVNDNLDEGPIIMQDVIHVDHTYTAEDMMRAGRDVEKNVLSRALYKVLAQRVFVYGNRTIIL
# UniProt P37774: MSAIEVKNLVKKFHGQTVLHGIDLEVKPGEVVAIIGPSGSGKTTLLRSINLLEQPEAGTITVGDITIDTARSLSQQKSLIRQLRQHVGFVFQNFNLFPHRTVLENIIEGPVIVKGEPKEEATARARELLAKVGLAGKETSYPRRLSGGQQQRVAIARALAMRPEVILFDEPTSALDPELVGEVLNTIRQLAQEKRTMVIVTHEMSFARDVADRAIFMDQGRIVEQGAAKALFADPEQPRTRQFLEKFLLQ
# UniProt P37652: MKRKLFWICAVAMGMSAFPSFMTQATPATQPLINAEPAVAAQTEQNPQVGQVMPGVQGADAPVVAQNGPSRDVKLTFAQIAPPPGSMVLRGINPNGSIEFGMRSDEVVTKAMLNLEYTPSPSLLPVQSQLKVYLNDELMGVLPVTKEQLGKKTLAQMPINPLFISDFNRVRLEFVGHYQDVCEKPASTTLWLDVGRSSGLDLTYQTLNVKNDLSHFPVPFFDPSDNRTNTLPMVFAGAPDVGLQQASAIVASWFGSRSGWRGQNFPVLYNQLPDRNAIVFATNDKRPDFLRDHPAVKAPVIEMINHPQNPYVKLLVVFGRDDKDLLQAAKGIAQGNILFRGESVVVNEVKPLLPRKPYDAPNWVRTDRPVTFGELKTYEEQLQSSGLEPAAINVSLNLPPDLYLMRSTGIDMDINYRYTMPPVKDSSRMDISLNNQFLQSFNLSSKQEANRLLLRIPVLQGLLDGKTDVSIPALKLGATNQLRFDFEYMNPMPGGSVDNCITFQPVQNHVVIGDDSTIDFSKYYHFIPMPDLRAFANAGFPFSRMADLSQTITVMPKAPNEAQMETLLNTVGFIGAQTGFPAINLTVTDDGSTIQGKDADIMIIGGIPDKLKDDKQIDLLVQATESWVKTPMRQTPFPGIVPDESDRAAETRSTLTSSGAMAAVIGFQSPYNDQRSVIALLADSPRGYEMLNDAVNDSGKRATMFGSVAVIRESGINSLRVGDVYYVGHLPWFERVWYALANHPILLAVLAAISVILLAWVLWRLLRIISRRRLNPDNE
# UniProt P33919: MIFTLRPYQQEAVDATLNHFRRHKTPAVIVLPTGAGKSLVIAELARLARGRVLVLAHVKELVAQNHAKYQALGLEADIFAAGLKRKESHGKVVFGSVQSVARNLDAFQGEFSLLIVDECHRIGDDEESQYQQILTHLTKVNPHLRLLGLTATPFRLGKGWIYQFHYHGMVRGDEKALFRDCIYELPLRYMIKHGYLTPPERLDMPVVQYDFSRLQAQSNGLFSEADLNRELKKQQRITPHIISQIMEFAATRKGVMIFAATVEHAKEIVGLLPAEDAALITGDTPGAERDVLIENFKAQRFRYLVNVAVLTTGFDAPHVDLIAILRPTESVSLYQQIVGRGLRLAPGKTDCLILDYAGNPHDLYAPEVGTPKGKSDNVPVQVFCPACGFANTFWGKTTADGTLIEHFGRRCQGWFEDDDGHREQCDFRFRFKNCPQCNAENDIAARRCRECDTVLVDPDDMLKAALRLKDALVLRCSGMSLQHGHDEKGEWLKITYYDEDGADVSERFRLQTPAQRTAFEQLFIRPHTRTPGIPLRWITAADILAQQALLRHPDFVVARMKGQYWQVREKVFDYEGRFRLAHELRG
# UniProt P43676: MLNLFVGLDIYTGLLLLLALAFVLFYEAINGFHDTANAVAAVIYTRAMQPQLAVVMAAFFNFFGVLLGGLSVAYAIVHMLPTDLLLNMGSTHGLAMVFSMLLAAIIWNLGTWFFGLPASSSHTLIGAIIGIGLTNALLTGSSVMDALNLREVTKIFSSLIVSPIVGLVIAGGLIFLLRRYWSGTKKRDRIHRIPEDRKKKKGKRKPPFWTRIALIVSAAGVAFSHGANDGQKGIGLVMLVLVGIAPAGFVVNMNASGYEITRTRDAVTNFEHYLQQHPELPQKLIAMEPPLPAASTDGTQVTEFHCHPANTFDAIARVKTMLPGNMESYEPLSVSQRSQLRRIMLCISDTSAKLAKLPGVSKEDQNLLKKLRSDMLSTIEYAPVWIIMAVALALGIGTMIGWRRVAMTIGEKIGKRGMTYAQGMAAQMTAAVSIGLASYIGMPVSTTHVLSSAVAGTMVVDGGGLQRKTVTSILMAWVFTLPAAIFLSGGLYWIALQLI
# UniProt P37146: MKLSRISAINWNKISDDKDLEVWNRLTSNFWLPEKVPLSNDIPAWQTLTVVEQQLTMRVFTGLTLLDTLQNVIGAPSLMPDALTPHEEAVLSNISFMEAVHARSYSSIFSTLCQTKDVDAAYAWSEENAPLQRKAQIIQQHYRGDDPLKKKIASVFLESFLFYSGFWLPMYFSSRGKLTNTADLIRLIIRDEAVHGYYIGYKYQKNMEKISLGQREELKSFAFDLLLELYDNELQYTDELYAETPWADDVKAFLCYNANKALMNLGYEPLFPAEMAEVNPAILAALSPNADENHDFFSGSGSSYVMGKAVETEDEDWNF
# UniProt P38036: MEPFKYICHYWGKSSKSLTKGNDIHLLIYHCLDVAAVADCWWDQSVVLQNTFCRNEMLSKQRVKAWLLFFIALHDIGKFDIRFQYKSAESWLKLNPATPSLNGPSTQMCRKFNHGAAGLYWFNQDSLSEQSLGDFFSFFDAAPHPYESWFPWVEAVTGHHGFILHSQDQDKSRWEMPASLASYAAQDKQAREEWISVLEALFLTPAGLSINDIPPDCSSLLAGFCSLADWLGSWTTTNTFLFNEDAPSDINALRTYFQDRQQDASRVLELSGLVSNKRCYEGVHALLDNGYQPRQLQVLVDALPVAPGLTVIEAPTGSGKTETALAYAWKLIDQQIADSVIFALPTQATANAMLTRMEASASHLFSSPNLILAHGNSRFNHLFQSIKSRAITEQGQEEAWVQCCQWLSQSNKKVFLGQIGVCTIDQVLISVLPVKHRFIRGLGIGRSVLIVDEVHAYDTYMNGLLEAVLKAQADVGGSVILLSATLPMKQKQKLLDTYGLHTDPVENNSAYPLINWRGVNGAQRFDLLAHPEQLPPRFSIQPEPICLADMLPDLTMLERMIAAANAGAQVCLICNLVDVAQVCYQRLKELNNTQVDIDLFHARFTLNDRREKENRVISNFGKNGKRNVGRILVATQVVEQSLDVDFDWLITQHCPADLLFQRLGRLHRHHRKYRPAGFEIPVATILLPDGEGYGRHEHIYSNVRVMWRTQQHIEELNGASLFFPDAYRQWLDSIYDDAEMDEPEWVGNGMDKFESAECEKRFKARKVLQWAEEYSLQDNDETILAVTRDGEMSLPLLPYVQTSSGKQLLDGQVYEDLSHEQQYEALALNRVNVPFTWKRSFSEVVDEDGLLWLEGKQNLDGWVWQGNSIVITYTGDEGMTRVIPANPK
# UniProt P45464: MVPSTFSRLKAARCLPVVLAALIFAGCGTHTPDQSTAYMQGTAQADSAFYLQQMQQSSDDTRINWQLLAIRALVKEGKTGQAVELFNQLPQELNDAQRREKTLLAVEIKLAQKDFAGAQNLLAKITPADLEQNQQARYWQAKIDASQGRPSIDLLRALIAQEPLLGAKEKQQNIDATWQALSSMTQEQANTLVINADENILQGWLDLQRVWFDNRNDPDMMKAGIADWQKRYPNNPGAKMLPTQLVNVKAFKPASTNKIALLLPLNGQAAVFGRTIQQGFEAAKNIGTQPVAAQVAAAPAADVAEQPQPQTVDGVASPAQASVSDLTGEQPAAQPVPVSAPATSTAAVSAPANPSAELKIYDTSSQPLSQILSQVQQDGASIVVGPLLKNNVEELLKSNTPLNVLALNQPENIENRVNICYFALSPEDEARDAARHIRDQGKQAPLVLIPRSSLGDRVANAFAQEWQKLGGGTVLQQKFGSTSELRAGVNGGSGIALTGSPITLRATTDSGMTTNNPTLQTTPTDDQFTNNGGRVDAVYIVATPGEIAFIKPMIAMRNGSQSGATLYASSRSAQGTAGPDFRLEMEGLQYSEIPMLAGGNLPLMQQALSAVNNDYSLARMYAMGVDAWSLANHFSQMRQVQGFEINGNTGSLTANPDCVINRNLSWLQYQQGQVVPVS
# UniProt P42604: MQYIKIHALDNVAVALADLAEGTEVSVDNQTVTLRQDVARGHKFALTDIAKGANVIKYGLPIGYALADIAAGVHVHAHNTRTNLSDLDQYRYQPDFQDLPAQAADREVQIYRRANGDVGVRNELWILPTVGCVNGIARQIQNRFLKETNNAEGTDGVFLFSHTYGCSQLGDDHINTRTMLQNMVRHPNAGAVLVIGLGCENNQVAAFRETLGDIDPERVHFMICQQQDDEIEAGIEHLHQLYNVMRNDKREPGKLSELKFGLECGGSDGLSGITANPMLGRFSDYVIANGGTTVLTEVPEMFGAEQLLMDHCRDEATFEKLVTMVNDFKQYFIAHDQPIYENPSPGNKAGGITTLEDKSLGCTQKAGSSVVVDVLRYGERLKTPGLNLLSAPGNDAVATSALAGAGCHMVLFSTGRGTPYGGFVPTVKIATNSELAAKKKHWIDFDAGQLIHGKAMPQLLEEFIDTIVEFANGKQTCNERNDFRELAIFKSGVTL
# UniProt P36677: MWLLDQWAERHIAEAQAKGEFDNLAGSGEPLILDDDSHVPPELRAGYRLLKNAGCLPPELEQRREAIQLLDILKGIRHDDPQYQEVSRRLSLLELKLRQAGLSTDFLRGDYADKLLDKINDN
# UniProt P36672: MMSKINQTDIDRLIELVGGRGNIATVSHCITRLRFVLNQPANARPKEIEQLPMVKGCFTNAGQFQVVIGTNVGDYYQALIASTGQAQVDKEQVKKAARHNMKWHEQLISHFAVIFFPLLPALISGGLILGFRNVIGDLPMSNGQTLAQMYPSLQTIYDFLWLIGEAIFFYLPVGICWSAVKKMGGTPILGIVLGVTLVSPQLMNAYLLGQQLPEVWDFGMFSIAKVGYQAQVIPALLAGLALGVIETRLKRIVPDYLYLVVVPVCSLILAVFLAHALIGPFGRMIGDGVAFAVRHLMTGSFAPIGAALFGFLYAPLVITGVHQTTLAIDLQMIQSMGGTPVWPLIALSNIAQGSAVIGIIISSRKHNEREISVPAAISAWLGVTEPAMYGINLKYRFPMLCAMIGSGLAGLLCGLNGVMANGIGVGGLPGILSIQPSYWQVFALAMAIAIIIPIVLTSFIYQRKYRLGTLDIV
# UniProt P37329: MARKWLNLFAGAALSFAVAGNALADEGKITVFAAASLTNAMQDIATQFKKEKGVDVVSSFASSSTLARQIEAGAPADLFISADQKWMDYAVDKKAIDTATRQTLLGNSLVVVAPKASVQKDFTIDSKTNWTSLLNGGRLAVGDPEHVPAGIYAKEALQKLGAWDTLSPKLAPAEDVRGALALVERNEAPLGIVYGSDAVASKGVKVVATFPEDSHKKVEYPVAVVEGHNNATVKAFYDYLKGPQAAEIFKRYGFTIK
# UniProt P39453: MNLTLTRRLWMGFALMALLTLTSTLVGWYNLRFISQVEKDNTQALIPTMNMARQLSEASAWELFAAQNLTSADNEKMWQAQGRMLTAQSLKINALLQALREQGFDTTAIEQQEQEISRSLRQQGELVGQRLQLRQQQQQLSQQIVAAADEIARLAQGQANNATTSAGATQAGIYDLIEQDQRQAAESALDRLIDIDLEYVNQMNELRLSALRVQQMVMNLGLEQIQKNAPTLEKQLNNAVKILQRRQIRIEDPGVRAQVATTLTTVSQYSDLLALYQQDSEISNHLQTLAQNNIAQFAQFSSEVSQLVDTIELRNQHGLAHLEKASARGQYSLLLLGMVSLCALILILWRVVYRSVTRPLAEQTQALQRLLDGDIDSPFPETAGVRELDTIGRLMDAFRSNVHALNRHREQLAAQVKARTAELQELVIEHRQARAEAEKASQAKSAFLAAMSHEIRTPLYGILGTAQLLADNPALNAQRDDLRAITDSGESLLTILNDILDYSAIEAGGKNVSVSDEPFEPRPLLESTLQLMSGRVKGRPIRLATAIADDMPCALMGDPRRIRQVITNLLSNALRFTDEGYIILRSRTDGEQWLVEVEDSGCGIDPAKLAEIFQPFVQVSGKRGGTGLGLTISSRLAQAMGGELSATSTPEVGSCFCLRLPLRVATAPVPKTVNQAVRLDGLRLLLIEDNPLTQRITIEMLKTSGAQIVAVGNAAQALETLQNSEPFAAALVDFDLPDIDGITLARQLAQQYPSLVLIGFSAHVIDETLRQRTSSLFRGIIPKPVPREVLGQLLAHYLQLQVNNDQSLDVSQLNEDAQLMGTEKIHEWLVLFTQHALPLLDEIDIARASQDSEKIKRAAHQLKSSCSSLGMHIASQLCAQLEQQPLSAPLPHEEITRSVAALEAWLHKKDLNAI
# Some of the results follow. Most entries show no effect beyond the scatter of the controls.
# Compound: CC1(C)S[C@@H]2[C@H](NC(=O)[C@H](N)c3ccccc3)C(=O)N2[C@H]1C(=O)O [ampicillin]
# Test: log2 fold change of tryptic peptide abundance, ligand vs vehicle (limited proteolysis) (log2 ratio); higher = more trypsin-susceptible (destabilized)
# Details: ligand concentration: 10 uM; sample: E. coli crude lysate
row,Target,log2 fold change
1,"UniProt P37051 (peptide sequence: HELNIVQNNEFVDHR, peptide start residue: 30)",0.101
2,"UniProt P38105 (peptide sequence: GIKPTLIIDAACHPSILK, peptide start residue: 226)",0.445
3,"UniProt P45771 (peptide sequence: HGPFLGCSQYPACDYVRPLK, peptide start residue: 29)",0.126
4,"UniProt P36879 (peptide sequence: LKSETFILDLAPK, peptide start residue: 227)",0.203
5,"UniProt P37774 (peptide sequence: TVLENIIEGPVIVKGEPK, peptide start residue: 101)",0.452
6,"UniProt P37652 (peptide sequence: LGATNQLR, peptide start residue: 476)",0.0342
7,"UniProt P33919 (peptide sequence: GWIYQFHYHGMVR, peptide start residue: 159)",0.468
8,"UniProt P38489 (peptide sequence: KFFADMHRK, peptide start residue: 122)",0.553
9,"UniProt P37443 (peptide sequence: VALASASRYNAWR, peptide start residue: 682)",-0.0822
10,"UniProt P37765 (peptide sequence: ESAEQICRVLAYYKPEGELCTR, peptide start residue: 61)",0.187
11,"UniProt P42620 (peptide sequence: LEQILGQHR, peptide start residue: 220)",0.439
12,"UniProt P43676 (peptide sequence: IPEDRKK, peptide start residue: 193)",0.116
13,"UniProt P37146 (peptide sequence: ISDDKDLEVWNR, peptide start residue: 14)",-0.0367
14,"UniProt P39364 (peptide sequence: DGVFANFVDQAR, peptide start residue: 244)",-0.138
15,"UniProt P33916 (peptide sequence: HRYPAEFSGGQR, peptide start residue: 420)",0.635
16,"UniProt P39187 (peptide sequence: VLQHIAGR, peptide start residue: 63)",-0.157
17,"UniProt P39321 (peptide sequence: DLTLSDVR, peptide start residue: 57)",-0.459
18,"UniProt P39298 (peptide sequence: LQQALSETGRDK, peptide start residue: 208)",-0.219
19,"UniProt P33650 (peptide sequence: LGCPVIPLVSTR, peptide start residue: 141)",-0.638
20,"UniProt P38036 (peptide sequence: FNHLFQSIK, peptide start residue: 379)",0.46
21,"UniProt P45464 (peptide sequence: SAQGTAGPDFR, peptide start residue: 572)",0.391
22,"UniProt P39359 (peptide sequence: LALQNENIVGIKDTIDSVGHLR, peptide start residue: 153)",-0.352
23,"UniProt P42604 (peptide sequence: AGSSVVVDVLR, peptide start residue: 366)",-0.844
24,"UniProt P39177 (peptide sequence: LQTMVSHFTIDPSR, peptide start residue: 70)",-0.133
25,"UniProt P36677 (peptide sequence: HDDPQYQEVSRR, peptide start residue: 78)",-0.452
26,"UniProt P37309 (peptide sequence: ESGLLLDRK, peptide start residue: 56)",-0.19
27,"UniProt P36672 (peptide sequence: FVLNQPANARPKEIEQLPMVK, peptide start residue: 35)",0.225
28,"UniProt P37329 (peptide sequence: LAVGDPEHVPAGIYAK, peptide start residue: 139)",0.639
29,"UniProt P39453 (peptide sequence: TAELQELVIEHR, peptide start residue: 420)",0.397
30,"UniProt P37636 (peptide sequence: QNVLLVPQEGVTHNAQGK, peptide start residue: 299)",0.195

# Retrieved one by one from the list above:
row,Target,log2 fold change
19,"UniProt P33650 (peptide sequence: LGCPVIPLVSTR, peptide start residue: 141)",-0.638
24,"UniProt P39177 (peptide sequence: LQTMVSHFTIDPSR, peptide start residue: 70)",-0.133
